Laboratory results from PubChem BioAssay AID248 (DTP/NCI, 2004).
The list is a part of this screen's results and no random one: it is rich in T/C values a quarter to a half above the control, in often repeated tests (any T/C) and in doses without a T/C. Further doses and runs are listed elsewhere. T/C is the treated group as % of the vehicle group. Some doses have a count of surviving animals in place of a T/C: the source files T/C as zero there, which appears to mark a toxic dose or a test without result, not a measured value. Some survivor counts are full or nearly so, which does not show that the dose was tolerated: survival well below the control is almost never listed, so the zero probably covers shortened survival too. Counts of survivors are from the toxicity check (mostly the fifth day) where no day follows; animals may have died later. Schedules are NCI's codes, read here as Q, the interval in days (D) or hours (H), X, the number of doses. Some doses were run more than once; their values stand side by side, smallest first. Some molecules as drawn cover several salts, stereoisomers or complexes of the source; a dose is that of the sample tested. For survival time, this PubChem deposit counts one and a half times the control or more as active, and values a quarter to a half above the control carry no call in these data; other NCI protocols may use other cut-offs. Counts like (3×) say how often a value occurs here. Some schedules carry Z or #; the key to these is not given. Some T/C values are followed by the survivors on the day toxicity was checked, most often the fifth; without a count, all were alive then.

Tested on: L1210 leukemia ip in BDF1 mice, survival T/C
Assay: NCI In Vivo Anticancer Drug Screen. Data for tumor model L1210 Leukemia (intraperitoneal) in B6D2F1 (BDF1) mice
Details: T/C endpoint: mean survival time, higher T/C = longer survival
[1] = dose: 100.0 mg/kg/injection, schedule: Q01DX001 (ip), vehicle: saline
[2] = dose: 200.0 mg/kg/injection, schedule: Q01DX001 (ip), vehicle: saline
[3] = dose: 400.0 mg/kg/injection, schedule: Q01DX001 (ip), vehicle: saline
[4] = dose: 400.0 mg/kg/injection, schedule: Q04DX003 (ip), vehicle: saline
[5] = dose: 100.0 mg/kg/injection, schedule: Q01DX009 (ip), vehicle: saline
[6] = dose: 200.0 mg/kg/injection, schedule: Q01DX009 (ip), vehicle: saline
[7] = dose: 400.0 mg/kg/injection, schedule: Q01DX009 (ip), vehicle: saline
[8] = dose: 100.0 mg/kg/injection, schedule: Q04DX002 (ip), vehicle: Klucel (hydroxypropylcellulose) (HPC)
[9] = dose: 200.0 mg/kg/injection, schedule: Q04DX002 (ip), vehicle: Klucel (hydroxypropylcellulose) (HPC)
[10] = dose: 400.0 mg/kg/injection, schedule: Q04DX002 (ip), vehicle: Klucel (hydroxypropylcellulose) (HPC)
[11] = dose: 400.0 mg/kg/injection, schedule: Q01DX001 (ip), vehicle: carboxymethylcellulose (CMC)
[12] = dose: 200.0 mg/kg/injection, schedule: Q04DX003 (ip), vehicle: saline
[13] = dose: 300.0 mg/kg/injection, schedule: Q01DX001 (ip), vehicle: saline
[14] = dose: 400.0 mg/kg/injection, schedule: Q04DX002 (ip), vehicle: saline with Tween-80
[15] = dose: 400.0 mg/kg/injection, schedule: Q01DX009 (ip), vehicle: Klucel (hydroxypropylcellulose) (HPC)
[16] = dose: 200.0 mg/kg/injection, schedule: Q04DX002 (ip), vehicle: DMSO

O=C(O)c1ccc(N/N=C\c2cc(=O)[nH]c(=O)[nH]2)cc1
survivor count (dose: 80.0 mg/kg/injection, schedule: Q01DX001 (ip), vehicle: saline): 0 of 4 | survivor count [1]: 1 of 4 | survivor count [2]: 1 of 4 | survivor count [3]: 2 of 4

O=C(O)CCCCCNCc1cc(=O)[nH]c(=O)[nH]1
survivor count [4]: 0 of 4

CC(C)NNC(=O)c1cccnc1
T/C [5]: 97 (2×) and 100 % of control | survivor count [5]: 5 of 6 | survivor count [6]: 2 of 3 | survivor count [7]: 0 of 3 and 0 of 6

C=CCSc1ccccc1C
survivor count [3]: 2 of 6

COc1cc2c(cc1O)C(CCc1cc(OC)c(OC)c(OC)c1)=[N+](C)CC2
survivor count [8]: 2 of 3 | survivor count [9]: 0 of 3 | survivor count [10]: 0 of 3

CCCCOC(OCCCC)c1ccccc1
survivor count (dose: 200.0 mg/kg/injection, schedule: Q01DX001 (ip), vehicle: carboxymethylcellulose (CMC)): 4 of 4 | survivor count [11]: 4 of 4

CC1=CC(O)Nc2c(CBr)cccc21 (stereo not drawn)
survivor count (dose: 100.0 mg/kg/injection, schedule: Q01DX009 (ip), vehicle: saline with Tween-80): 0 of 6 | survivor count [12]: 6 of 6 | survivor count [4]: 0 of 6

C[As](C)N
survivor count (dose: 40.0 mg/kg/injection, schedule: Q01DX001 (ip), vehicle: saline): 1 of 6 | survivor count (dose: 75.0 mg/kg/injection, schedule: Q01DX001 (ip), vehicle: saline): 0 of 6 | survivor count [1]: 0 of 6 | survivor count (dose: 150.0 mg/kg/injection, schedule: Q01DX001 (ip), vehicle: saline): 0 of 6 | survivor count [2]: 0 of 6 | survivor count [13]: 0 of 6 | survivor count [3]: 0 of 6

Cc1c(C)c(C)c([N+](=O)[O-])c([N+](=O)[O-])c1C
survivor count [14]: 3 of 3

C=CCCCCCCCC[CH2][Sn]([Cl])([Cl])[Cl]
survivor count [12]: 3 of 3

CCN(CC)CCC(C=NCC(CCN(CC)CC)(c1cccc2ccccc12)C(C)C)(c1cccc2ccccc12)C(C)C (stereo not drawn)
survivor count (dose: 6.25 mg/kg/injection, schedule: Q04DX002 (ip), vehicle: saline + alcohol): 3 of 3 | survivor count (dose: 50.0 mg/kg/injection, schedule: Q04DX002 (ip), vehicle: saline with Tween-80): 2 of 3 | survivor count (dose: 100.0 mg/kg/injection, schedule: Q04DX002 (ip), vehicle: saline + alcohol): 3 of 3 | survivor count (dose: 100.0 mg/kg/injection, schedule: Q04DX002 (ip), vehicle: saline with Tween-80): 0 of 3 | survivor count (dose: 200.0 mg/kg/injection, schedule: Q04DX002 (ip), vehicle: saline + alcohol): 1 of 3 | survivor count (dose: 400.0 mg/kg/injection, schedule: Q04DX002 (ip), vehicle: saline + alcohol): 2 of 3

O=C(CN(Cc1ccccc1)Cc1ccccc1)c1ccccc1
survivor count (dose: 200.0 mg/kg/injection, schedule: Q04DX003 (ip), vehicle: DMSO): 1 of 6 | survivor count (dose: 400.0 mg/kg/injection, schedule: Q04DX003 (ip), vehicle: DMSO): 1 of 6

C/C(=N\Nc1cccc(N)c1)c1ccccc1
survivor count (dose: 160.0 mg/kg/injection, schedule: Q04DX002 (ip), vehicle: saline with Tween-80): 3 of 3 | survivor count [14]: 3 of 3

Cc1cccc(C(=O)NNC(=O)c2cccc(C)c2)c1
survivor count [15]: 2 of 6

CN(N=O)C(=O)NCCCCNC(=O)N(C)N=O
T/C (dose: 100.0 mg/kg/injection, schedule: Q01DX Z (ip), vehicle: carboxymethylcellulose (CMC)): 135 % of control | T/C (dose: 150.0 mg/kg/injection, schedule: Q01DX Z (ip), vehicle: carboxymethylcellulose (CMC)): 145 % of control | T/C (dose: 300.0 mg/kg/injection, schedule: Q01DX Z (ip), vehicle: carboxymethylcellulose (CMC)): 148 % of control

Clc1ccc(/C=N/c2snc3ccccc23)c(Cl)c1
survivor count [8]: 3 of 3 | survivor count [9]: 0 of 3 | survivor count [10]: 3 of 3

Nc1nc(N)c2nc3c(nc2n1)CN(c1ccc(C(=O)O)cc1)C3=O
survivor count [7]: 1 of 6

CC(O)CNC1CCCCC1 (stereo not drawn)
survivor count [13]: 3 of 6

CCC1NCCc2cc(OC)c(O)cc21 (stereo not drawn)
survivor count [13]: 1 of 6

CCCCCCCCCCCCCCCCCCSC(=N)N
survivor count (dose: 200.0 mg/kg/injection, schedule: Q01DX009 (ip), vehicle: saline with Tween-80): 5 of 6 | survivor count (dose: 400.0 mg/kg/injection, schedule: Q01DX009 (ip), vehicle: saline with Tween-80): 3 of 6

[CH3][Sb]1([Br])[CH2]CC[CH2]1
survivor count [4]: 0 of 3

CC(=O)OCc1ccc(O)c2ncccc12
survivor count (dose: 300.0 mg/kg/injection, schedule: Q01DX001 (ip), vehicle: carboxymethylcellulose (CMC)): 0 of 6

Clc1ccccc1/C=C/c1ccccn1
survivor count (dose: 50.0 mg/kg/injection, schedule: Q04DX002 (ip), vehicle: DMSO): 3 of 3 | survivor count (dose: 100.0 mg/kg/injection, schedule: Q04DX002 (ip), vehicle: DMSO): 2 of 3 | T/C [16]: 125 % of control [2 of 3 alive] | survivor count [16]: 2 of 3 | survivor count (dose: 400.0 mg/kg/injection, schedule: Q04DX002 (ip), vehicle: DMSO): 0 of 3 and 1 of 3

CN(C)c1ccc(N=Nc2cc(Cl)cc(Cl)c2)cc1
survivor count [11]: 6 of 6

CC1(C)CN1CC1CO1 (stereo not drawn)
T/C (dose: 11.0 mg/kg/injection, schedule: Q01DX Z (ip), vehicle: saline): 126 and 129 % of control | T/C (dose: 16.0 mg/kg/injection, schedule: Q01DX Z (ip), vehicle: saline): 143 and 143 % of control [5 of 6 alive]

Nc1c(Oc2cccc(C[N+]3(CCOS(=O)(=O)O)CC3)c2)cc(O)c2c1C(=O)c1ccccc1C2=O
survivor count [11]: 0 of 4

C=CCOCC(O)CN(C)CC1CCCO1 (stereo not drawn)
survivor count [7]: 0 of 6 | survivor count [4]: 2 of 6

CSc1ccc2c(c1)N(CCC1CCCCN1C)c1ccccc1S2 (stereo not drawn)
survivor count (dose: 25.0 mg/kg/injection, schedule: Q01DX009 (ip), vehicle: saline): 1 of 6 | survivor count (dose: 50.0 mg/kg/injection, schedule: Q01DX009 (ip), vehicle: saline): 0 of 6 | survivor count (dose: 100.0 mg/kg/injection, schedule: Q04DX003 (ip), vehicle: saline): 2 of 6 | survivor count [12]: 0 of 6 | survivor count [4]: 2 of 6

Cc1ccc(SS(=O)(=O)c2ccc(C)cc2)cc1
survivor count (dose: 400.0 mg/kg/injection, schedule: Q01DX001 (ip), vehicle: Klucel (hydroxypropylcellulose) (HPC)): 3 of 3

C#CC[N+]1(C)CCC=C(C(=O)OC)C1 (stereo not drawn)
survivor count [5]: 2 of 6 | survivor count [6]: 0 of 6 | survivor count [7]: 0 of 6

O=[N+]([O-])c1ccc(Cl)c2c([N+](=O)[O-])cccc12
survivor count (dose: 400.0 mg/kg/injection, schedule: Q04DX003 (ip), vehicle: saline with Tween-80): 6 of 6

NN(c1ccccc1)c1ccc2ccccc2c1
survivor count [15]: 0 of 6
